Library screen at single concentrations

By UniProt entry, the sequences of proteins in these tests, tags left out. Residues count along the entry.
UniProt I6X8D2, whole entry: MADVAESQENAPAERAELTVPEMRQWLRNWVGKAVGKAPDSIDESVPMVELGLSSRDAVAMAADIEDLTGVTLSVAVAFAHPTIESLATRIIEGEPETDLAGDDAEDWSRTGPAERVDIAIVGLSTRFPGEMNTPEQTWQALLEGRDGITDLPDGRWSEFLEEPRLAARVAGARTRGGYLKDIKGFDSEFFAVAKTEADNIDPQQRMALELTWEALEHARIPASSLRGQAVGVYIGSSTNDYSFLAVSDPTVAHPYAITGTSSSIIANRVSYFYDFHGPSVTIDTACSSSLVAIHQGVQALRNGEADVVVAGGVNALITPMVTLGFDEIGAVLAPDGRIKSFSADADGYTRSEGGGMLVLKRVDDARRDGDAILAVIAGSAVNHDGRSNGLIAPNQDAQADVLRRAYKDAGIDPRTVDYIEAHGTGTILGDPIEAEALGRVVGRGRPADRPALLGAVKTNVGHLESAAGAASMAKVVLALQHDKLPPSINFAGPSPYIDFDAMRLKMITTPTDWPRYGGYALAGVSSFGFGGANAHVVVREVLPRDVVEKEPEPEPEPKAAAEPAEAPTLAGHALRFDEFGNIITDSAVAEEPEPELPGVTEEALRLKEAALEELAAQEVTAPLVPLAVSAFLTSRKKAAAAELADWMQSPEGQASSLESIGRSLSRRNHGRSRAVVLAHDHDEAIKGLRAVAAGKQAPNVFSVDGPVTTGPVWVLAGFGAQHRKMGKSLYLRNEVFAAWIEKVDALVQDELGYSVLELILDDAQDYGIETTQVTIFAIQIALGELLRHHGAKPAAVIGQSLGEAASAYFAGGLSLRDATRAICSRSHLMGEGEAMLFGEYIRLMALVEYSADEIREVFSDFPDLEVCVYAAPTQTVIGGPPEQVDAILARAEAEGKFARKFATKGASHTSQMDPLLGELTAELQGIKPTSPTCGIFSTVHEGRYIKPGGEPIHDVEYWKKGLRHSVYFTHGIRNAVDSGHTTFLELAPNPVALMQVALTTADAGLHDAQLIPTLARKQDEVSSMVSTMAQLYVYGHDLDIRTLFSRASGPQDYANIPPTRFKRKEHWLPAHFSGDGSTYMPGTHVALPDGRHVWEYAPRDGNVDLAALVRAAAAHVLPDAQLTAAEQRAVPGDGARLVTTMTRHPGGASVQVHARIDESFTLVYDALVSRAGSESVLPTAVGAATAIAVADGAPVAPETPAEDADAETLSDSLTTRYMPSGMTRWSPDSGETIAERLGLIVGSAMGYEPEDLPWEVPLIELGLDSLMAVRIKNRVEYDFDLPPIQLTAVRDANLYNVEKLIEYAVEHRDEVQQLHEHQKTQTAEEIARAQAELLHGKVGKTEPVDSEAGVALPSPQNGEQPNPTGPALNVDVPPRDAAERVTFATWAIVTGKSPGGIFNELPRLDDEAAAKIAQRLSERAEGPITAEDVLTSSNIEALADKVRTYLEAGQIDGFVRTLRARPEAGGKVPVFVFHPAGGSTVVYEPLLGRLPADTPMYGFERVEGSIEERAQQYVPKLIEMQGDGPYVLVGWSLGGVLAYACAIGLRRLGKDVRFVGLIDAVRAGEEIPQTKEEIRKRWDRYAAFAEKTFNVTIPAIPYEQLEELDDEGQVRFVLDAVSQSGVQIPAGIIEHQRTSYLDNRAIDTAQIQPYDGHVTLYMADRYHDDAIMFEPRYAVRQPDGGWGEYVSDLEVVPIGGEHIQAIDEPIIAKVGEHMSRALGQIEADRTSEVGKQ
UniProt P9WFT3, whole entry: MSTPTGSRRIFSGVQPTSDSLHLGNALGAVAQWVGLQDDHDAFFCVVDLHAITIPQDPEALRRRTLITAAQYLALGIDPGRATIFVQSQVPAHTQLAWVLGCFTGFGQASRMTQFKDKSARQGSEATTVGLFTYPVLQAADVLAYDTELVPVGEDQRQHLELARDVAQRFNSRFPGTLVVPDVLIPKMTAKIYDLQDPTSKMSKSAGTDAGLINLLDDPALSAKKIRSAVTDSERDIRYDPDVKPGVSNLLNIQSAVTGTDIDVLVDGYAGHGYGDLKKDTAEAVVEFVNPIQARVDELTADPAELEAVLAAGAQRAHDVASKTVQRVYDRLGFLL
UniProt P9WNZ1, whole entry: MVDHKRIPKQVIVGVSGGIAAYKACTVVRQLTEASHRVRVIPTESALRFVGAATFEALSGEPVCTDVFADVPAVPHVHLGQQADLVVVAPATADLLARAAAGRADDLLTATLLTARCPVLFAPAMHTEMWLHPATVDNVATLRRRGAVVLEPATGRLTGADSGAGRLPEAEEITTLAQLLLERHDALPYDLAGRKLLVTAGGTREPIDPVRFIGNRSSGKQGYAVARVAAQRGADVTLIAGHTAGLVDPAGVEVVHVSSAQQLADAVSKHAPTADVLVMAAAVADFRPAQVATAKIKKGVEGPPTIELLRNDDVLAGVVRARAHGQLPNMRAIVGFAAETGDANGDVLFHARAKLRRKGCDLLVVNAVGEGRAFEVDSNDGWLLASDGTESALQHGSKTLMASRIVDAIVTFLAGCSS
UniProt Q8IDJ8, 1-583: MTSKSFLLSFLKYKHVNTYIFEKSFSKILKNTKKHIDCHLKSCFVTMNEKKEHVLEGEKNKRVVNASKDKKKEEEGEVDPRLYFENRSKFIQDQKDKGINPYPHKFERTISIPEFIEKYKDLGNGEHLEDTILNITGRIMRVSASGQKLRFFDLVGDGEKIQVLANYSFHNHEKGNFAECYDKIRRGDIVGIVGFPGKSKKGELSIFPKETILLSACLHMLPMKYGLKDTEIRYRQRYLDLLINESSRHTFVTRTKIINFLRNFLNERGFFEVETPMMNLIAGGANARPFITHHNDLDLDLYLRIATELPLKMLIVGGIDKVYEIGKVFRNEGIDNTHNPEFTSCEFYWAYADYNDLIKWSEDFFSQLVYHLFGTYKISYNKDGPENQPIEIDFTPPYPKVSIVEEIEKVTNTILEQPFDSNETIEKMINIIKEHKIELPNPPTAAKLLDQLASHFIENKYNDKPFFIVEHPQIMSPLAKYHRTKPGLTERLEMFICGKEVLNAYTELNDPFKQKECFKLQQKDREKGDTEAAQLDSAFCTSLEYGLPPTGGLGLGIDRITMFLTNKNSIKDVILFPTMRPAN

Measurements from “University of Dundee, Small-Polar-MMV Screening Library” (2021), ChEMBL document CHEMBL3988442.

Values are the deposited “Percent Effect”, in %.
The controls that fix the scale are not given in the record; negative values are as filed.
The compounds are a random part of those screened.

Pks13 thioesterase: 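Enzyme assay of the thioesterase domain of polyketide synthase 13; the read-out is not stated. Target: Polyketide synthase Pks13, Mycobacterium tuberculosis (UniProt I6X8D2). Tested at 30 µM. Higher reads as stronger inhibition (inferred from which compounds were picked for retests). Size under these conditions: about 67,000 compounds, about 300 of them at 50% or above in at least one test.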
MtTrpRS: 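Enzyme assay of tryptophanyl-tRNA synthetase; the read-out is not stated. Target: Tryptophan-tRNA ligase, Mycobacterium tuberculosis (UniProt P9WFT3). Concentration: 10 µM. Direction is not recorded; retested compounds ran higher, which suggests that high means inhibition. Size under these conditions: about 65,000 compounds, about 64 of them at 50% or above in at least one test.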
CoaBC: 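Coenzyme A biosynthesis protein CoaBC, Mycobacterium tuberculosis (UniProt P9WNZ1). Enzyme assay of CoaBC with a phosphate dye (Biomol Green) read at 650 nm. Compounds at 30 µM. Higher reads as stronger inhibition, judged from the few compounds that gave an IC50. Most strong results did not repeat in a second test. Size under these conditions: about 67,000 compounds, about 40 of them at 50% or above in at least one test.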
PfKRS1: 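Lysine-tRNA ligase, Plasmodium falciparum 3D7 (UniProt Q8IDJ8). Enzyme assay of the cytosolic lysyl-tRNA synthetase in 384-well plates, read by luminescence. Concentration: 30 µM. Direction is inferred from only a few compounds that gave an IC50; most scored high, so higher reads as stronger inhibition. Size under these conditions: about 69,000 compounds, about 49 of them at 50% or above in at least one test.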

Result for Cc1n[nH]c(C)c1NC(=O)Nc1cccnc1N1CCCC1 was Pks13 thioesterase: 3.798%; MtTrpRS: 2.469%; CoaBC: -2.724%; PfKRS1: 5.255%. For Cn1nnc2c1CCN(Cc1ccoc1)C2COCc1ccccc1 (configuration not stated) the result was Pks13 thioesterase: 10.16%; MtTrpRS: -3.171%; CoaBC: -1.961%; PfKRS1: 0.4658%. With Cc1ccc(C)c2c(O)cc(CN3CCC(c4nncn4C)CC3)nc12 the screen gave Pks13 thioesterase: -11.49%; MtTrpRS: 4.338%; CoaBC: 6.971%; PfKRS1: 5.25%. O=C1c2ncccc2C(CCO)N1Cc1ccccc1 (configuration not stated) read Pks13 thioesterase: -0.02443%; CoaBC: -2.577%; PfKRS1: 5.732%. With Cc1nn(C)c(C)c1CCC(=O)N1CCCC(n2cccn2)C1 (configuration not stated) the screen gave Pks13 thioesterase: -31.09%; MtTrpRS: 3.595%; CoaBC: 2.682%; PfKRS1: -2.262%. c1c(CN2CCCC2)nc2n1CCN(C1CCOCC1)C2 gave Pks13 thioesterase: 12.72%; CoaBC: 0.2439%; PfKRS1: 1.944%. CCc1ncc(C(=O)N2CCCN(C3CCCC3)CC2)cn1 read Pks13 thioesterase: -32.91%; MtTrpRS: -1.725%; CoaBC: 10.19%; PfKRS1: 4.988%.

CN(C)CC(=O)N1CCc2cccc(S(=O)(=O)N3CCOCC3)c2C1 read Pks13 thioesterase: 11.03%; MtTrpRS: -5.105%; CoaBC: -0.8631%; PfKRS1: -2.491%. CCn1c(C)cc(C(=O)N2CCc3nnc(N)cc3C2)c1C read Pks13 thioesterase: 2.277%; MtTrpRS: -3.067%; CoaBC: 6.489%; PfKRS1: -0.7602%. Result for CC(C)(CO)Nc1c(NCc2ccccn2)c(=O)c1=O was Pks13 thioesterase: -3.107%; MtTrpRS: -1.977%; CoaBC: 2.785%; PfKRS1: 4.878%. CCC1CN(C(=O)COc2ccc(C(=O)NC3CC3)cc2)CCO1 (configuration not stated) read Pks13 thioesterase: -41.49%; MtTrpRS: -4.862%; CoaBC: 1.499%; PfKRS1: 7.543%. O=C(c1ccco1)N1CCC2(CC1)C(=O)Nc1ccccc12 gave Pks13 thioesterase: -23.49%; MtTrpRS: -11.64%; CoaBC: -6.075%; PfKRS1: 2.189%. Result for CC(CCNC(=O)NCCNc1cnccn1)c1ccccc1 (configuration not stated) was Pks13 thioesterase: -27.56%; MtTrpRS: -10.06%; CoaBC: 4.701%; PfKRS1: 2.336%. With Cc1cc(C)c2nc(CN3CCC(N4CCOCC4)CC3)cc(O)c2c1 the screen gave Pks13 thioesterase: 5.913%; MtTrpRS: -0.729%; CoaBC: -8.333%; PfKRS1: 2.297%.

For CCC(C)NC(=O)CCc1ccnc2ccccc12 (configuration not stated) the result was Pks13 thioesterase: 3.159%; MtTrpRS: -0.4854%; CoaBC: 2.871%; PfKRS1: -1.428%. Result for Cc1cncc(C(=O)N2C[C@H]3CCC[C@@]3(COc3ccccn3)C2)c1 was Pks13 thioesterase: -17.81%; MtTrpRS: -1.046%; CoaBC: 3.361%; PfKRS1: 8.128%. CN1CCN(C(=O)CCc2cc(Br)cs2)CC1 read Pks13 thioesterase: -25.02%; MtTrpRS: -1.503%; CoaBC: -3.719%; PfKRS1: 3.346%. For Cc1c(C(=O)N(C)C)cccc1N(C)S(C)(=O)=O the result was Pks13 thioesterase: -1.255%; MtTrpRS: 2.422%; CoaBC: 1.618%; PfKRS1: 1.664%. For CS(=O)(=O)N1CCCCC12CCN(C(=O)c1ccccc1)C2 (configuration not stated) the result was Pks13 thioesterase: -23.11%; MtTrpRS: -6.202%; CoaBC: 0.9346%; PfKRS1: 0.6149%. CNC(=O)C1Cn2ccnc2C2(CCN(CCF)CC2)O1 (configuration not stated) gave Pks13 thioesterase: -5.521%; MtTrpRS: -3.638%; CoaBC: 1.141%; PfKRS1: 4.398%. With CCOc1ccnc(N2CCN(C(=O)c3ccc(OC)cc3)CC2)n1 the screen gave Pks13 thioesterase: -11.33%; MtTrpRS: -8.427%; CoaBC: 3.259%; PfKRS1: 3.215%.

Result for CNc1nc(C2CCCCN2C(=O)C(C)(C)OC)nc2c1CN(C)CC2 (configuration not stated) was CoaBC: 1.699%; PfKRS1: 2.967%. For COc1ccc(CSCC(O)CO)c(Cl)c1 (configuration not stated) the result was Pks13 thioesterase: -8.46%; MtTrpRS: 16.91%; CoaBC: 4.589%; PfKRS1: 1.67%. For COc1ccc(CN(Cc2ccco2)Cc2[nH]cnc2C)c(OC)c1 the result was Pks13 thioesterase: -11.88%; MtTrpRS: -1.886%; CoaBC: 6.164%; PfKRS1: -0.5201%. Cc1noc(C)c1CN1C(=O)[C@H]2CC[C@@H]1CN(Cc1cccnc1N)C2 read Pks13 thioesterase: -20.01%; MtTrpRS: 6.256%; CoaBC: -8.861%; PfKRS1: -3.178%. CCCn1cc(S(=O)(=O)N[C@H]2CN(CC(N)=O)C[C@@H]2C2CC2)cn1 gave Pks13 thioesterase: -8.965%; MtTrpRS: 1.083%; CoaBC: 7.992%; PfKRS1: 8.095%. CCn1cc(NC(=O)NCC(O)COc2cccc(F)c2)cn1 (configuration not stated) read Pks13 thioesterase: 3.704%; MtTrpRS: -2.83%; CoaBC: 0.7979%; PfKRS1: 3.505%. For Cc1c(C(=O)N2C[C@@H](CN(C)CCO)[C@@H](CO)C2)sc2ccccc12 the result was Pks13 thioesterase: -4.145%; MtTrpRS: 0.9009%; CoaBC: -0.3699%; PfKRS1: 5.655%.

O=C(CCN1CCCC(CC2CC2)(C(=O)O)C1)NC1CCCC1 (configuration not stated) gave Pks13 thioesterase: 4.793%; MtTrpRS: -4.009%; CoaBC: -2.163%; PfKRS1: -1.536%.

The first 3 entries again:

With Cc1n[nH]c(C)c1NC(=O)Nc1cccnc1N1CCCC1 the screen gave Pks13 thioesterase: 3.798%; MtTrpRS: 2.469%; CoaBC: -2.724%; PfKRS1: 5.255%.
With Cn1nnc2c1CCN(Cc1ccoc1)C2COCc1ccccc1 (configuration not stated) the screen gave Pks13 thioesterase: 10.16%; MtTrpRS: -3.171%; CoaBC: -1.961%; PfKRS1: 0.4658%.
With Cc1ccc(C)c2c(O)cc(CN3CCC(c4nncn4C)CC3)nc12 the screen gave Pks13 thioesterase: -11.49%; MtTrpRS: 4.338%; CoaBC: 6.971%; PfKRS1: 5.25%.